Data set [1] relates to primary human hepatocytes. Description: Lactate dehydrogenase. The class given is cell-based. As to conditions: donor #2; 100*Cmax; ± cytokine mix.
For data set [2], the system named is Akt, p70 S6K, MEK–ERK, and p38–HSP27 signaling pathways. As to conditions: donor #2; 100*Cmax.

Molecules are shown by their SMILES.

As for `Nc1nc2ccc(OC(F)(F)F)cc2s1` [riluzole], the “cell death induced by drug” value in data set [1] is “induced cell death”. In addition, the “activation of the four 'network gauge' signaling pathways compared to control treatments” value in data set [2] is “without significant activation”.

(Values after article PMC2943488 (Molecular bioSystems, 2010).)
